Results are given in words; binding and its absence hold for the method and conditions named. Binding seen in cells or lysates may run through a third protein. Some binding calls cover weakened binding; strength is not graded here.
Legend:
[1] = target: recombinant soluble basigin (rsBSG), corresponding to the ADAM12-generated basigin ectodomain (human) (UniProt P35613); test: co-IP; HT1080 WT cells treated with purified rsBSG before lysis (RIPA buffer); rsBSG immunoprecipitated with strep-tag antibody, co-precipitated β1 integrin detected by western blot with AIIB2 antibody; control rat IgG as negative control; only the target purified
[2] = target: β1 integrin (human (endogenous in HT1080)) (UniProt P05556); test: co-IP; HT1080 WT cells treated with purified rsBSG before lysis (RIPA buffer); β1 integrin immunoprecipitated with AIIB2 antibody, co-precipitated rsBSG detected by western blot with anti-strep-tag antibody; control rat IgG as negative control; only the binder purified

Protein sequences, listed by entry. Tags and fused reporters are not part of them. Lines headed by an entry give the natural chain unless they say otherwise; changes in a name come on top. Chains listed by the source or under a name are the forms on record and can include a tag or linker.
recombinant soluble basigin (rsBSG), corresponding to the ADAM12-generated basigin ectodomain (P35613-2, form named): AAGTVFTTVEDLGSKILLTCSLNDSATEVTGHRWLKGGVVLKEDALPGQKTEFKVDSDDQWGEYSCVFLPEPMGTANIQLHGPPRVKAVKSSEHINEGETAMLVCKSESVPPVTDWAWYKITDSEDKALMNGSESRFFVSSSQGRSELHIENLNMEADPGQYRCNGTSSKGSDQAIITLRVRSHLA
UniProt P05556: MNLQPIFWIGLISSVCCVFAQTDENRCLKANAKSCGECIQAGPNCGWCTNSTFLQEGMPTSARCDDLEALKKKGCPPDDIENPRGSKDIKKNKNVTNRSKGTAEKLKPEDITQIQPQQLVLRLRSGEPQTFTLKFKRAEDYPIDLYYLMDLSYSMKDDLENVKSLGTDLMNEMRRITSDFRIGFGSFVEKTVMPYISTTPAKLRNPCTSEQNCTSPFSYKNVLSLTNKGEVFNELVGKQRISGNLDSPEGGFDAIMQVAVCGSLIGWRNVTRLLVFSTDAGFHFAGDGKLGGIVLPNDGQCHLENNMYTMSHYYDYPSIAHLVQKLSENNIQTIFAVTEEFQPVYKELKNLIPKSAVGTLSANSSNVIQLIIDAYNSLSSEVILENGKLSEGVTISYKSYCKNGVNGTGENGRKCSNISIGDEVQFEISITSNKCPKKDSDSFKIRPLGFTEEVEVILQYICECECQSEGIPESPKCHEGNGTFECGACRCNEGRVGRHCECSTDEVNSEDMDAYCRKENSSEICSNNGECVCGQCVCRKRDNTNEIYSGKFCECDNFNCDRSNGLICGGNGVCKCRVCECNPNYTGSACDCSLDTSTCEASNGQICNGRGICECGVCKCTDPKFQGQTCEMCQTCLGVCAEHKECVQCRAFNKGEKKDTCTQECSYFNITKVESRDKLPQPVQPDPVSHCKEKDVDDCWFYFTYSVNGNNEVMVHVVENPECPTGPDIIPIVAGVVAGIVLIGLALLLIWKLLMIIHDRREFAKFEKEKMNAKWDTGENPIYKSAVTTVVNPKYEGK

β1 integrin (from UniProt P05556 21-798) (receptor)
binding [1]: binds

recombinant soluble basigin (rsBSG), corresponding to the ADAM12-generated basigin ectodomain (from UniProt P35613-2 22-207) (domain or fragment)
binding [2]: binds

From paper PMC11172339
